Values from PubChem BioAssay AID1259308 (NCATS, 2017).
The deposit covers about 59,000 reagents; below is a random part of them. About 1,510 of them (2.6%) count as active. 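Calls use total luciferase alone and ignore viability, so some active siRNAs may act by altering cell number.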 Unmarked entries are inactive. Reagents against one gene are numbered here. Not all columns of the deposit are shown. Reagent sequences are not shown.

Aim: 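Knock-downs that increase output of a recombinant reporter protein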 (primary screen)
Cell system: human HEK293 embryonic kidney cells stably expressing firefly luciferase (HEK-CMV-Luc2-Hygro)
Knock-down reagent: single siRNA against human genes, 0.8 pmol siRNA per well
Duration: 72 h
Measurement: 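Luciferase light (ONE-Glo) measured on one replicate plate set and viability (CellTiter-Glo) on the other, scaled to a negative control siRNA, with robust z-scores and luciferase per cell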
Direction: total luciferase, z-score and total luciferase, % of control: higher = more reporter protein produced
Rule for the call: 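Active when the median/MAD z-score for overall luciferase is greater than 3; a gene was taken forward for validation with new siRNAs if at least two of its three siRNAs passed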
Meaning of the calls: active = raised luciferase; inactive = no rise

HMGB3P27 #1: total luciferase, z-score = 0.415; total luciferase, % of control = 90.1
HMGB3P27 #2: total luciferase, z-score = 2.2; total luciferase, % of control = 126
HMGB3P27 #3: total luciferase, z-score = -0.188; total luciferase, % of control = 78.1
PHLPP1 #1: total luciferase, z-score = -0.067; total luciferase, % of control = 80.6
PHLPP1 #2: total luciferase, z-score = 0.702; total luciferase, % of control = 95.9
PHLPP1 #3: total luciferase, z-score = 0.0752; total luciferase, % of control = 83.4
CHRNB3 #1: total luciferase, z-score = 0.291; total luciferase, % of control = 87.7
CHRNB3 #2: total luciferase, z-score = -0.292; total luciferase, % of control = 76.1
CHRNB3 #3: total luciferase, z-score = 0.793; total luciferase, % of control = 97.7
TGFBR3L #1: total luciferase, z-score = 3.65 (active); total luciferase, % of control = 155
TGFBR3L #2: total luciferase, z-score = 0.702; total luciferase, % of control = 95.8
TGFBR3L #3: total luciferase, z-score = -0.303; total luciferase, % of control = 75.9
RIMKLA #1: total luciferase, z-score = 0.384; total luciferase, % of control = 89.5
RIMKLA #2: total luciferase, z-score = 0.65; total luciferase, % of control = 94.8
RIMKLA #3: total luciferase, z-score = -1.05; total luciferase, % of control = 61.1
ZBTB43 #1: total luciferase, z-score = -1.69; total luciferase, % of control = 48.2
ZBTB43 #2: total luciferase, z-score = -1.03; total luciferase, % of control = 61.5
ZBTB43 #3: total luciferase, z-score = 0.646; total luciferase, % of control = 94.7
SRPK1 #1: total luciferase, z-score = 1.9; total luciferase, % of control = 120
SRPK1 #2: total luciferase, z-score = -0.236; total luciferase, % of control = 77.2
SRPK1 #3: total luciferase, z-score = 1.66; total luciferase, % of control = 115
NEK6 #1: total luciferase, z-score = 0.565; total luciferase, % of control = 93.1
NEK6 #2: total luciferase, z-score = 0.223; total luciferase, % of control = 86.3
NEK6 #3: total luciferase, z-score = -1.04; total luciferase, % of control = 61.2
TTC27 #1: total luciferase, z-score = -0.132; total luciferase, % of control = 79.3
TTC27 #2: total luciferase, z-score = 0.449; total luciferase, % of control = 90.8
TTC27 #3: total luciferase, z-score = -0.0935; total luciferase, % of control = 80
C6 #1: total luciferase, z-score = -1.44; total luciferase, % of control = 53.3
C6 #2: total luciferase, z-score = -0.144; total luciferase, % of control = 79
C6 #3: total luciferase, z-score = -2.2; total luciferase, % of control = 38.1
ACVR2B #1: total luciferase, z-score = -0.724; total luciferase, % of control = 67.5
ACVR2B #2: total luciferase, z-score = 1.52; total luciferase, % of control = 112
ACVR2B #3: total luciferase, z-score = 0.157; total luciferase, % of control = 85
PTPN6 #1: total luciferase, z-score = -0.237; total luciferase, % of control = 77.2
PTPN6 #2: total luciferase, z-score = -1.47; total luciferase, % of control = 52.7
PTPN6 #3: total luciferase, z-score = 2.73; total luciferase, % of control = 136
LYRM9 #1: total luciferase, z-score = 0.898; total luciferase, % of control = 99.8
LYRM9 #2: total luciferase, z-score = -0.116; total luciferase, % of control = 79.6
LYRM9 #3: total luciferase, z-score = 2; total luciferase, % of control = 122
TENT2 #1: total luciferase, z-score = -0.522; total luciferase, % of control = 71.5
TENT2 #2: total luciferase, z-score = 0.112; total luciferase, % of control = 84.1
TENT2 #3: total luciferase, z-score = 1.67; total luciferase, % of control = 115

Copied from the entries so far (7 entries):
RIMKLA #1: total luciferase, z-score = 0.384; total luciferase, % of control = 89.5
RIMKLA #2: total luciferase, z-score = 0.65; total luciferase, % of control = 94.8
RIMKLA #3: total luciferase, z-score = -1.05; total luciferase, % of control = 61.1
ZBTB43 #1: total luciferase, z-score = -1.69; total luciferase, % of control = 48.2
ZBTB43 #2: total luciferase, z-score = -1.03; total luciferase, % of control = 61.5
ZBTB43 #3: total luciferase, z-score = 0.646; total luciferase, % of control = 94.7
SRPK1 #1: total luciferase, z-score = 1.9; total luciferase, % of control = 120
